Drawing on paper PMC7730581, this text covers binding for one molecule.

This assay has as its target T1, N-terminally His10-tagged LapA (E. coli) (UniProt P0ACV4).
T1 sequence: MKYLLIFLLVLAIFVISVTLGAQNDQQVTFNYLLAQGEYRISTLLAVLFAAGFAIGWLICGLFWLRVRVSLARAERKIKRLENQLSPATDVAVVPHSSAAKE
Nature of the assay: affinity purification with mass spectrometry; His10-LapA co-expressed with LapB (100 or 500 μM IPTG); IM proteins solubilised with 2% octyl-β-D-glucoside, applied over Ni-NTA beads; eluted proteins resolved on 12% SDS-PAGE and identified by MALDI-TOF.

Results are given in words; binding and its absence hold for the method and conditions named. In cells and extracts the contact can be indirect. A yes stands for co-enrichment or nearness to the bait. Other partners may have been found. Where a sequence is shown, tags or fusion partners need not be part of it.

B1: LapB (co-expressed with His10-LapA) (protein, UniProt P0AB58 1-389)
chain: MLELLFLLLPVAAAYGWYMGRRSAQQNKQDEANRLSRDYVAGVNFLLSNQQDKAVDLFLDMLKEDTGTVEAHLTLGNLFRSRGEVDRAIRIHQTLMESASLTYEQRLLAIQQLGRDYMAAGLYDRAEDMFNQLTDETDFRIGALQQLLQIYQATSEWQKAIDVAERLVKLGKDKQRVEIAHFYCELALQHMASDDLDRAMTLLKKGAAADKNSARVSIMMGRVFMAKGEYAKAVESLQRVISQDRELVSETLEMLQTCYQQLGKTAEWAEFLQRAVEENTGADAELMLADIIEARDGSEAAQVYITRQLQRHPTMRVFHKLMDYHLNEAEEGRAKESLMVLRDMVGEKVRSKPRYRCQKCGFTAYTLYWHCPSCRAWSTIKPIRGLDGL
Turning to B1, the binding result is on record as “binds”.
